Results on four molecules are retold here after paper PMC7526497.

Amino acid sequences for entries named in this document (tags omitted).
UniProt O43167: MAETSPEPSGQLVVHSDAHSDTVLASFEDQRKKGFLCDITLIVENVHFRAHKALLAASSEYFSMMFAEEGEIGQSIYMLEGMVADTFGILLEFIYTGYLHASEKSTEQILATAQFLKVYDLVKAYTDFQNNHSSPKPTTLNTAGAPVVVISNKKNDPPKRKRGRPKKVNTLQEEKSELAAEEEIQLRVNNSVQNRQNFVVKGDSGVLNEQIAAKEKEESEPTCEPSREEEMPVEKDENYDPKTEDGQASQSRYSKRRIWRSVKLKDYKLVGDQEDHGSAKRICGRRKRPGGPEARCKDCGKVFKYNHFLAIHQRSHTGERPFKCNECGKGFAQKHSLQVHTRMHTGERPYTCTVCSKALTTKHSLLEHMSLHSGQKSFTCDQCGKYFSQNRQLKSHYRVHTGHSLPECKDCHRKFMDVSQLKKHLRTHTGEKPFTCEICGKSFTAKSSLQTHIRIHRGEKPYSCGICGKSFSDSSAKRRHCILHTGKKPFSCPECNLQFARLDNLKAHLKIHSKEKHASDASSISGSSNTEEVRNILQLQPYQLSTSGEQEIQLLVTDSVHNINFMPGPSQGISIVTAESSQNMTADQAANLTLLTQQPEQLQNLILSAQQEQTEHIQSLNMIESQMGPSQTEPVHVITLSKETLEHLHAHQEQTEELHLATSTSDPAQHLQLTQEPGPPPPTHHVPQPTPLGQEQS
UniProt P09874: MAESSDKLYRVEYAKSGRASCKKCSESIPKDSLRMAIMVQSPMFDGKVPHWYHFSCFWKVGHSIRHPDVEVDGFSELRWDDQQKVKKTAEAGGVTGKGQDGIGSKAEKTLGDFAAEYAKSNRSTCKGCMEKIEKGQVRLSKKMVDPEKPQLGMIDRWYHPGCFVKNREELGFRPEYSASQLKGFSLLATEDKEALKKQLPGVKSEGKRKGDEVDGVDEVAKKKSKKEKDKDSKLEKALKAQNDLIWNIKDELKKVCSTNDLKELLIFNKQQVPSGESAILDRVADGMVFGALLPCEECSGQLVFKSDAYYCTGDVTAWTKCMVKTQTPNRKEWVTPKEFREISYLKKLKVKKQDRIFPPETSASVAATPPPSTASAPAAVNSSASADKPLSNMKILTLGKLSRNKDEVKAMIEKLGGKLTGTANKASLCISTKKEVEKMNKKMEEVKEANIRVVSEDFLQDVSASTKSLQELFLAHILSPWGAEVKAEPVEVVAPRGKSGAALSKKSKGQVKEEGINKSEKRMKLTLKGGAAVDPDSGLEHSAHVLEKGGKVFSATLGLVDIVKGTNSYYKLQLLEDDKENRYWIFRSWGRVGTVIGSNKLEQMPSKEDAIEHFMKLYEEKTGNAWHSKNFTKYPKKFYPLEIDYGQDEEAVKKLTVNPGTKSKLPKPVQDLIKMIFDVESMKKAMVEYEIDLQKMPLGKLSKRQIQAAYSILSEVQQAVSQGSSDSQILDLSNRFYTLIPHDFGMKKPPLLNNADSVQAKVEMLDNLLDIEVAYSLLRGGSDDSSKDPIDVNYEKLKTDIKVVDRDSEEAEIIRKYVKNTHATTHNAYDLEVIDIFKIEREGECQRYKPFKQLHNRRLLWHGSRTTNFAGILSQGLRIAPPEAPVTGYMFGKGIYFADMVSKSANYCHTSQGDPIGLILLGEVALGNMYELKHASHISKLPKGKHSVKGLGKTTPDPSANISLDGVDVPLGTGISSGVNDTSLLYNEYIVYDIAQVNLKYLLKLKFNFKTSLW
UniProt P18887: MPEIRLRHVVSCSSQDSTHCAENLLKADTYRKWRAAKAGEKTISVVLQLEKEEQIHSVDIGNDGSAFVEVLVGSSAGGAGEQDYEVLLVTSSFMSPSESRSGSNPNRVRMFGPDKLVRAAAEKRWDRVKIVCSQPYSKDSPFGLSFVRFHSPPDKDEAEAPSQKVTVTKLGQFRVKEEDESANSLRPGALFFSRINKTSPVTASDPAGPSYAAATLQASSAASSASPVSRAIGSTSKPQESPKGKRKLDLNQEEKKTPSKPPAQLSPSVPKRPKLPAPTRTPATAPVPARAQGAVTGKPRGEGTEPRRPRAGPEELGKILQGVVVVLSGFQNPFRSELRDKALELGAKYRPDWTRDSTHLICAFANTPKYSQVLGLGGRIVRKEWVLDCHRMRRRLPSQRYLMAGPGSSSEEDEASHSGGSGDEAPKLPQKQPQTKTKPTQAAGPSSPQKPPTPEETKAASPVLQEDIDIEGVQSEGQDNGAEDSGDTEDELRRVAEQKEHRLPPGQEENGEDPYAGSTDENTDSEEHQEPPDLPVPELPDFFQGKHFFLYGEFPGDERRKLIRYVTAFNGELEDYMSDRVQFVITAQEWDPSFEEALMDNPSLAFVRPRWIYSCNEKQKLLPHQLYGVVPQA

Results are given in words; binding and its absence hold for the method and conditions named. Binding seen in cells or lysates may run through a third protein. Here binding means that the protein was enriched with, or labelled near, the bait; the list need not be complete.

One experiment concerns the target GFP-ZBTB24 (human) (UniProt O43167). In words: affinity purification with mass spectrometry; SILAC-labelled U2OS cells transiently expressing GFP-ZBTB24 or GFP-PARP1 (heavy) or empty vector (light); lysis in EBC-150, sonication, Benzonase, NaCl raised to 300 mM; GFP Trap beads, washes with EBC-300; on-bead trypsin digestion, LC-MS/MS.
The target in the next experiment is GFP-PARP1 (UniProt P09874). The description is as above.

Turning to “poly(ADP-ribose) polymerase 1 (PARP1), endogenous (from UniProt P09874 1-1014) (enzyme)”, the binding entry with GFP-ZBTB24 (human) is listed as “binds”.

Turning to “XRCC1, endogenous (from UniProt P18887 1-633)”, the binding result with GFP-PARP1 was “binds”.

With “ZBTB24, endogenous (from UniProt O43167 1-697)”, in the experiment with GFP-PARP1, the binding result is “binds”.

B1: DNA ligase 3 (LIG3), endogenous (enzyme, UniProt P49916 43-1009)
chain: LLHGHPLFLRRKPVLSFQGSHLRSRATYLVFLPGLHVGLCSGPCEMAEQRFCVDYAKRGTAGCKKCKEKIVKGVCRIGKVVPNPFSESGGDMKEWYHIKCMFEKLERARATTKKIEDLTELEGWEELEDNEKEQITQHIADLSSKAAGTPKKKAVVQAKLTTTGQVTSPVKGASFVTSTNPRKFSGFSAKPNNSGEAPSSPTPKRSLSSSKCDPRHKDCLLREFRKLCAMVADNPSYNTKTQIIQDFLRKGSAGDGFHGDVYLTVKLLLPGVIKTVYNLNDKQIVKLFSRIFNCNPDDMARDLEQGDVSETIRVFFEQSKSFPPAAKSLLTIQEVDEFLLRLSKLTKEDEQQQALQDIASRCTANDLKCIIRLIKHDLKMNSGAKHVLDALDPNAYEAFKASRNLQDVVERVLHNAQEVEKEPGQRRALSVQASLMTPVQPMLAEACKSVEYAMKKCPNGMFSEIKYDGERVQVHKNGDHFSYFSRSLKPVLPHKVAHFKDYIPQAFPGGHSMILDSEVLLIDNKTGKPLPFGTLGVHKKAAFQDANVCLFVFDCIYFNDVSLMDRPLCERRKFLHDNMVEIPNRIMFSEMKRVTKALDLADMITRVIQEGLEGLVLKDVKGTYEPGKRHWLKVKKDYLNEGAMADTADLVVLGAFYGQGSKGGMMSIFLMGCYDPGSQKWCTVTKCAGGHDDATLARLQNELDMVKISKDPSKIPSWLKVNKIYYPDFIVPDPKKAAVWEITGAEFSKSEAHTADGISIRFPRCTRIRDDKDWKSATNLPQLKELYQLSKEKADFTVVAGDEGSSTTGGSSEENKGPSGSAVSRKAPSKPSASTKKAEGKLSNSNSKDGNMQTAKPSAMKVGEKLATKSSPVKVGEKRKAADETLCQTKVLLDIFTGVRLYLPPSTPDFSRLRRYFVAFDGDLVQEFDMTSATHVLGSRDKNPAAQQVSPEWIWACIRKRRLVAPC
In the case of B1, in the experiment with GFP-PARP1, the binding result is given as “binds”.
